The values are deposited in ChEMBL (CHEMBL3988442, “University of Dundee, Small-Polar-MMV Screening Library” (2021)).

By UniProt entry, the sequences of proteins in these tests, tags left out.
UniProt I6X8D2, whole entry: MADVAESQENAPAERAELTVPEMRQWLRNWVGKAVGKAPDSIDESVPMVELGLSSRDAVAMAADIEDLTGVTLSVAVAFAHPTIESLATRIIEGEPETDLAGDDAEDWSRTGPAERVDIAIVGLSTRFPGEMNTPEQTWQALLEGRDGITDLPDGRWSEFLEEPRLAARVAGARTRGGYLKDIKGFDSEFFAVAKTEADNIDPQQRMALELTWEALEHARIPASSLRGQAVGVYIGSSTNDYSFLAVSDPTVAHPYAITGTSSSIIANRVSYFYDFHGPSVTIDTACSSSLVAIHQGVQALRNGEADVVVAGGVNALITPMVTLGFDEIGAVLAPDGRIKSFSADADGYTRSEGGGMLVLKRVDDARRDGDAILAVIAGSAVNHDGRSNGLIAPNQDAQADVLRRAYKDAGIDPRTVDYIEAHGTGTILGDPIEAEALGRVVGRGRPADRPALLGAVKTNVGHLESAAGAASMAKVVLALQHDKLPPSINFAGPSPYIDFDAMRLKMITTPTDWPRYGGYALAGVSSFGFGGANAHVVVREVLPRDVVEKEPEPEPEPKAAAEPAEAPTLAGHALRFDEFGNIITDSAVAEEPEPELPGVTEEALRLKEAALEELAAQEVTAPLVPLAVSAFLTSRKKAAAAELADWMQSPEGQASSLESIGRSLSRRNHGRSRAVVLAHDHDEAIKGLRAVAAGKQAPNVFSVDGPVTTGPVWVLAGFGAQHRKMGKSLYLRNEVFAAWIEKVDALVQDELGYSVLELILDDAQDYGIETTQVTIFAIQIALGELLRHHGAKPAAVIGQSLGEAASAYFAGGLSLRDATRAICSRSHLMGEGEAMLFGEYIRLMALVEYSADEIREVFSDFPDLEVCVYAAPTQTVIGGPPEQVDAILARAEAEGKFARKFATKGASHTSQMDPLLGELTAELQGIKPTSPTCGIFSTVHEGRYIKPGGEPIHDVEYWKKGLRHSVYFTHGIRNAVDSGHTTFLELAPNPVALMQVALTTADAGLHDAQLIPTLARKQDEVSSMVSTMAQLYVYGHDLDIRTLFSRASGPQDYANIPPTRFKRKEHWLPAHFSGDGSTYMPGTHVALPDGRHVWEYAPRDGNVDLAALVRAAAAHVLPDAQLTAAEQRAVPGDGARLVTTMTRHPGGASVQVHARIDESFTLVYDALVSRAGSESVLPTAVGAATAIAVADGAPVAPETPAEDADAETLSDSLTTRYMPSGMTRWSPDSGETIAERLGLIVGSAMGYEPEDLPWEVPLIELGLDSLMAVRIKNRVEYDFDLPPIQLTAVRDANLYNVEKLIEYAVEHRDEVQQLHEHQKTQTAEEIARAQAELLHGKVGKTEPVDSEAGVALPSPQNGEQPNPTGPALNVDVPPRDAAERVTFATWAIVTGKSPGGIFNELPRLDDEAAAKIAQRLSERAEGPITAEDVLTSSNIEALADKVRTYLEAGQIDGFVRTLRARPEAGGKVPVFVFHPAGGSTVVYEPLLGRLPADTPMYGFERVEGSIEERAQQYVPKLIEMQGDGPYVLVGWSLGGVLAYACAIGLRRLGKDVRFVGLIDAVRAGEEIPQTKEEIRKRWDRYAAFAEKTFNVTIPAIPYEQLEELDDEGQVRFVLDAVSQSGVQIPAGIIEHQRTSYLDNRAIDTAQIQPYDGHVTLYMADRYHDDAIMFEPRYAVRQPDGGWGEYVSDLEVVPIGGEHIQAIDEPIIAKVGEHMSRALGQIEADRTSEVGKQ
UniProt P9WPC5, whole entry: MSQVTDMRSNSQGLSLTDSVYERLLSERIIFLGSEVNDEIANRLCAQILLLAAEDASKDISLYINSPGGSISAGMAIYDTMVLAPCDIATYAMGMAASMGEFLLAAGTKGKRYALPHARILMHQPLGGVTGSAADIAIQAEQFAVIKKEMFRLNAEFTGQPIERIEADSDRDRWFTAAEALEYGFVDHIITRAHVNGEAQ
UniProt P9WPC3, whole entry partner: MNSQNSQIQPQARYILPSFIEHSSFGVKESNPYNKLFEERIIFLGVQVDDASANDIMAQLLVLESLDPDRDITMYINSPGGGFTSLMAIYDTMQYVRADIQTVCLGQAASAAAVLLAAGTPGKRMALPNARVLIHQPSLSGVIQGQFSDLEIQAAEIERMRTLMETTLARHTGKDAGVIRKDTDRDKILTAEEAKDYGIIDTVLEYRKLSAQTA

Each number is a percent effect as filed. How 0% and 100% were set is not recorded. Most values in the screen are low, and negative values occur. The compounds are a random part of those screened.

A: 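Cell assay of Leishmania donovani living inside macrophages; the read-out is not stated. Concentration: 30 µM. Higher reads as stronger inhibition (inferred: compounds with an IC50 in retests scored well above the rest). About 69,000 compounds were tested under these conditions; 1.5% (about 1,000) showed 50% or more at least once.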
B: 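Polyketide synthase Pks13, Mycobacterium tuberculosis (UniProt I6X8D2). Enzyme assay of the thioesterase domain of polyketide synthase 13; the read-out is not stated. Concentration: 30 µM. Higher reads as stronger inhibition (inferred from which compounds were picked for retests). Size under these conditions: about 67,000 compounds, about 300 of them at 50% or above in at least one test.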
C: 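ClpP1P2, Mycobacterium tuberculosis (UniProt P9WPC5 and UniProt P9WPC3). Protease assay of ClpP1P2, read by the AMC dye that it sets free. Tested at 50 µM. Higher reads as stronger inhibition, judged from the few compounds that gave an IC50. Most other retested compounds had strongly negative values. Size under these conditions: about 69,000 compounds, about 10 of them at 50% or above in at least one test.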
D: 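Whole-parasite assay of Trypanosoma brucei over 72 hours; the read-out is not stated. Tested at 30 µM. Higher reads as stronger inhibition (inferred: compounds with an IC50 in retests scored well above the rest). Values scatter widely below zero; nearly all retest evidence comes from the higher of the two concentrations used. Of about 64,000 compounds tested this way, about 940 (1.5%) reached 50% or more in at least one test.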

* COC1CCN(C(=O)c2ccccc2NCc2cccnc2)CC1 : A: 18.54%; B: -12.3%; C: -11.77%; D: -1.23%
* N#Cc1ccc(CSCCN2CCOCC2)cc1 : A: 14.02%; B: -13.57%; C: -3.049%; D: -13.72%
* COc1ncccc1CNC(=O)c1cnc(C)cn1 : A: 3.578%; B: -23.27%; C: -11.28%; D: -2.087%
* C[C@H]1C(=O)NC[C@H]2CN(CCc3ccccc3)C[C@H]21 : B: -10.32%; C: -6.91%
* O=C(O)C(F)(F)F.[H][C@@]12COC[C@]1([H])[C@H](NC(=O)c1cccn1C)CN2Cc1cccs1 : A: -7.278%; D: -15.85%
* C[C@@H]1CN(Cc2ccoc2)C[C@]12CCN(CC(=O)N(C)C)C2=O.O=C(O)C(F)(F)F : A: 1.993%; D: -13.07%
* CCC1CCCN(S(=O)(=O)c2cnn(C)c2)C1 (stereo not shown) : A: 0.07585%; B: 10.12%; C: 6.628%; D: -15.96%
* Cc1cc(NCCO)nc(-c2ccccc2O)n1 : A: -9.421%; B: 19.67%; C: 7.879%; D: -11.56%
* CS(=O)(=O)NC[C@H]1Cn2c(-c3ccc(F)cc3)cnc2CO1 : A: -31.86%; B: -16.49%; C: 4.742%; D: -3.397%
* CCNC(=O)CCC(=O)Nc1nc(C)c(Cc2ccc(F)cc2)s1 : A: 0.5978%; B: -32.18%; C: -1.293%; D: 2.443%
* O=C(NCC1CC1)[C@H]1C[C@@H]2CCN(Cc3ccc4c(c3)OCO4)C[C@@H]2O1 : B: -12.19%; C: 5.405%
* COc1c(C)cnc(CNC(=O)c2cc(C)nc3onc(C)c23)c1C : A: 22.63%; B: -8.775%; C: -4.119%; D: -15.97%
* Cc1cnn(CC2CCCN2C(=O)CN(C)C2CC2)c1 (stereo not shown) : A: 11.87%; B: -4.182%; C: -12.79%
* CC1(C)CN(C(CNC2=NCCN2)c2ccc(Cl)cc2)CCO1.I (stereo not shown) : A: 18.94%; D: 11.29%
* Clc1ccc2cccnc2c1CN1CCCC(Cn2cncn2)C1 (stereo not shown) : A: 18.81%; B: -23.61%; C: 7.162%; D: 98.3%
* CCc1c(C)nc2n(c1=O)CC(C(=O)Nc1ncccc1C)CS2 (stereo not shown) : A: -2.072%; B: -4.472%; C: -14.52%; D: -17.07%
* COc1ncc(NS(=O)(=O)c2ccc(F)c(F)c2)c(OC)n1 : A: -7.548%; B: -10.17%; C: -13.43%; D: -20.57%
* Cc1nc(-c2cc(C(=O)N3CCCN(C)CC3)c3ccccn23)cn1C : B: -5.581%; C: -69.87%
* CCC(NC(=O)c1cccc(N2CCCC2=O)c1)c1ccc(OC)cc1 (stereo not shown) : A: 9.308%; B: -29.45%; C: -4.679%; D: -6.321%
* CC(C)C(=O)N1CCC[C@]2(C(=O)N(C)C)CN(c3ccccn3)C[C@@H]2C1 : B: -23.21%; C: 0.0374%
* COc1ccc2c(c1)C1(CCN(Cc3nccs3)CC1)N(C)CC2 : B: -9.133%; C: -3.663%
* Cc1ccc([C@@H]2CN(S(=O)(=O)c3ccccc3)C[C@H]2N(C)C)cc1 : A: 9.091%; B: -19.3%; C: -9.401%; D: -12.18%
* O=C(c1cocn1)N1C[C@@H]2CN(CC3CC3)CCO[C@@H]2C1 : B: -17.22%; C: -3.689%
* CCN(Cc1ccoc1)C(=O)Nc1ccccc1CN(C)C(C)=O : A: 24.49%; B: -13.49%; C: -0.5971%; D: -117.2%
* Fc1ccc(OCc2noc(CN3CCc4cncnc4C3)n2)cc1 : A: 14.02%; B: 15.23%; C: 1.008%; D: -3.925%

Some entries from above, unchanged:

Result for COc1ncccc1CNC(=O)c1cnc(C)cn1 was A: 3.578%; B: -23.27%; C: -11.28%; D: -2.087%.
Result for C[C@@H]1CN(Cc2ccoc2)C[C@]12CCN(CC(=O)N(C)C)C2=O.O=C(O)C(F)(F)F was A: 1.993%; D: -13.07%.